Compound in this assay: CC1Cc2ccccc2N1C(=O)C1CCCN(C1)C(=O)CCl (mixture of isomers) [TRIM25 ligand 11 (diastereomer mixture)]
Kind of assay: probe-labelled cysteine peptide fold change vs DMSO (competition) (log2 fold change); higher = less target engagement (more negative = stronger competition). The following applies: THP-1, incubation time: 4 h.

Protein sequences, listed by entry. Tags and fused reporters are not part of them. Lines headed by an entry give the natural chain unless they say otherwise; changes in a name come on top.
UniProt P32189: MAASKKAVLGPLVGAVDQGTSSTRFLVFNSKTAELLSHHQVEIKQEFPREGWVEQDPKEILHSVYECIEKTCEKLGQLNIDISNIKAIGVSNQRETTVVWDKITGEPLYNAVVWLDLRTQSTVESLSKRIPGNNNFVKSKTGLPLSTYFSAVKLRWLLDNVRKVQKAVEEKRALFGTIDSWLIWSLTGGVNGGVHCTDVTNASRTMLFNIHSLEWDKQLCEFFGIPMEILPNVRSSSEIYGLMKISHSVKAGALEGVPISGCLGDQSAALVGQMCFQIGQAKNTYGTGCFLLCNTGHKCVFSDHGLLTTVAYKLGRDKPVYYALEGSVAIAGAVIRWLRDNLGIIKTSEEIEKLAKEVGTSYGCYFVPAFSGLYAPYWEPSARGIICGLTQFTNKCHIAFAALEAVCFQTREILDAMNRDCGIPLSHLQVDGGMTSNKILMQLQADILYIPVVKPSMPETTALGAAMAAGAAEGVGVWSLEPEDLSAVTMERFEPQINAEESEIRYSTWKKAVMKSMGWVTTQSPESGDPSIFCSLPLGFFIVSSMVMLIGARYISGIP
UniProt P04899, whole entry, looked up: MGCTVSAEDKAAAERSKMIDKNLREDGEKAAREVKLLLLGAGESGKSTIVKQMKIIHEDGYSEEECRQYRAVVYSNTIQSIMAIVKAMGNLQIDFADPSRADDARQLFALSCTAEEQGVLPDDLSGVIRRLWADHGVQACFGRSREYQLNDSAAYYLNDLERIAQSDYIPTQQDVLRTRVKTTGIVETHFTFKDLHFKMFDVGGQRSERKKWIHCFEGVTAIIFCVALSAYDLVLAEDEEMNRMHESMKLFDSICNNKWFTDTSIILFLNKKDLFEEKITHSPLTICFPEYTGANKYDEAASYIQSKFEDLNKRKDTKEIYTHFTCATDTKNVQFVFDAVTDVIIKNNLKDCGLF
UniProt P49915: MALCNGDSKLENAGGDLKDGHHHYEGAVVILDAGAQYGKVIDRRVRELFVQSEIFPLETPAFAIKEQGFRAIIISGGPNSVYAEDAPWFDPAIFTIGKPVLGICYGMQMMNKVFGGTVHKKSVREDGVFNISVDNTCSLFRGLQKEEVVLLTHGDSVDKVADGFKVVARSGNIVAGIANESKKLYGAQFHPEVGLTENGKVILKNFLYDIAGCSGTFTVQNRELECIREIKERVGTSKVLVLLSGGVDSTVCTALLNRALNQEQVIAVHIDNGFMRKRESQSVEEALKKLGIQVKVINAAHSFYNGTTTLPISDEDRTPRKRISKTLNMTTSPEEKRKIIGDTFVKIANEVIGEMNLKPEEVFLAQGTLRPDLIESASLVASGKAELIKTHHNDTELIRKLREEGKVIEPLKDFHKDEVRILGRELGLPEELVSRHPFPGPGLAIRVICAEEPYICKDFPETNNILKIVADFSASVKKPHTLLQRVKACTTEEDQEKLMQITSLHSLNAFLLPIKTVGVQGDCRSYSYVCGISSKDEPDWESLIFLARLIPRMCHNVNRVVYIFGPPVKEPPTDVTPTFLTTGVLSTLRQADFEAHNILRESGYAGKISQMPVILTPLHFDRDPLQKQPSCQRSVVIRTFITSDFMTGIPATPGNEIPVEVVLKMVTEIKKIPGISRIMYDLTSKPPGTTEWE
UniProt Q92896: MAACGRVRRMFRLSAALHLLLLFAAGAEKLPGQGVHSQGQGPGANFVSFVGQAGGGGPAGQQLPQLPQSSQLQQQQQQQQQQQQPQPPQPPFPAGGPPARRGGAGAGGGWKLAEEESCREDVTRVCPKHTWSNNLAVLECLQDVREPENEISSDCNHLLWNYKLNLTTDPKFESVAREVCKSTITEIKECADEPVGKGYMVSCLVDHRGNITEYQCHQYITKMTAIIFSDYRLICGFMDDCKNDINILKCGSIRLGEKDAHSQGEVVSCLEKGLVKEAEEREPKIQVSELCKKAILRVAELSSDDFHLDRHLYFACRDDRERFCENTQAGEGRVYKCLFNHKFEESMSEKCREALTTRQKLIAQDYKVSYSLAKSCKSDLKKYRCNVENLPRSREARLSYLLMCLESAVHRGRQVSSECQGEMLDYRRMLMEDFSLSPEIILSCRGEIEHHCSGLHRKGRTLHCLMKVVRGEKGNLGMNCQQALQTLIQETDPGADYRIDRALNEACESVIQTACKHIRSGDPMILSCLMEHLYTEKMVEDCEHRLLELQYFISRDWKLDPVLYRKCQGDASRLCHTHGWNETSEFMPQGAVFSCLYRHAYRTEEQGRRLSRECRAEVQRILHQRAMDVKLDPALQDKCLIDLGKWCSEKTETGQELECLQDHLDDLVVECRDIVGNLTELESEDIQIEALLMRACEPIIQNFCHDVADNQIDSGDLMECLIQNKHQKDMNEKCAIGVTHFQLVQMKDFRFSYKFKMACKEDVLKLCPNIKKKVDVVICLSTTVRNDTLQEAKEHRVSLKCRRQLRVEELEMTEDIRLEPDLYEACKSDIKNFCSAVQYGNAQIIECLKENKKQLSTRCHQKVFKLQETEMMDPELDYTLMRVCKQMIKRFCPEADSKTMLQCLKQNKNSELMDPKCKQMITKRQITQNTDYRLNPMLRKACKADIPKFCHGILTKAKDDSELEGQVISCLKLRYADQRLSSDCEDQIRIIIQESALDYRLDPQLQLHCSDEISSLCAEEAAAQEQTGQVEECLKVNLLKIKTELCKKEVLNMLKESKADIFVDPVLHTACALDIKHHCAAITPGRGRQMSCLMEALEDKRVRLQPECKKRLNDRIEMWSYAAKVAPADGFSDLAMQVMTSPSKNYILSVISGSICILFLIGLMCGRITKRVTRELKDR
UniProt Q8N954: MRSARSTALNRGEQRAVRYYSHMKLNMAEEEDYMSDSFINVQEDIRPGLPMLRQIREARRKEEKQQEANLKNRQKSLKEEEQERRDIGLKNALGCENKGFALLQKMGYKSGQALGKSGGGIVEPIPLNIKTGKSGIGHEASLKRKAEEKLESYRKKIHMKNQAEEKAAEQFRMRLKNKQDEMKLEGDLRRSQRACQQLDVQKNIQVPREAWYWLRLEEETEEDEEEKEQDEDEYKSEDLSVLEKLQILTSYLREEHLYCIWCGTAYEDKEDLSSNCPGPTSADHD
UniProt Q96IJ6: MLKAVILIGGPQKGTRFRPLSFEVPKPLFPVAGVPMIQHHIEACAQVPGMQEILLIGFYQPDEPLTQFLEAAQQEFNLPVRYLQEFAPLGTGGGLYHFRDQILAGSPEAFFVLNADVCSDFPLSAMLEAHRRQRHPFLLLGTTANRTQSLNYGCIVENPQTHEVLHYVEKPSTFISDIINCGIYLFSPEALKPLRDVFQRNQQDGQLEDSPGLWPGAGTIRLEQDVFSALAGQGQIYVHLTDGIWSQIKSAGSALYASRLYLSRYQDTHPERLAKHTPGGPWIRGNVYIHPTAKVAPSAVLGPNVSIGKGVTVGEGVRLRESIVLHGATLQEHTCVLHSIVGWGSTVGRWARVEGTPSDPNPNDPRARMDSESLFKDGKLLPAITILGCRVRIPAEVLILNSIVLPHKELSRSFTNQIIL
UniProt O94925: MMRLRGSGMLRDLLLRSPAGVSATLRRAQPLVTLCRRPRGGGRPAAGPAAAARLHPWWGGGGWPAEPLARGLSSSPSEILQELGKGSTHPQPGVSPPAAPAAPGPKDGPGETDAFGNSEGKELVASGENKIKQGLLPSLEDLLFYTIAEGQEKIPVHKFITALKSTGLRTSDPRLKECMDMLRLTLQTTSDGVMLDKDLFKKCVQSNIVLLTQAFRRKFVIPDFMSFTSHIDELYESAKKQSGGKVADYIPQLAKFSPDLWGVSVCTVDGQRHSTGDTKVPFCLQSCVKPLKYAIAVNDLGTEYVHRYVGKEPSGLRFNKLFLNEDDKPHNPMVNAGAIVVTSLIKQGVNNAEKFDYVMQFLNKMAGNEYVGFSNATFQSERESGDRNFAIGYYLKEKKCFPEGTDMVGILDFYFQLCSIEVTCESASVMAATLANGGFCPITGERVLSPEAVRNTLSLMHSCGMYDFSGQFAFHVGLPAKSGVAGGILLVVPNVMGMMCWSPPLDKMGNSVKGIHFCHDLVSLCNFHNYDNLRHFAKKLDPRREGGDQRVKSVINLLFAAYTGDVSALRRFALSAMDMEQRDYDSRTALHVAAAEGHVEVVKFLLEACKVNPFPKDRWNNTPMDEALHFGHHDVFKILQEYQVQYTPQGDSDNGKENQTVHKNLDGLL
UniProt Q9BVP2: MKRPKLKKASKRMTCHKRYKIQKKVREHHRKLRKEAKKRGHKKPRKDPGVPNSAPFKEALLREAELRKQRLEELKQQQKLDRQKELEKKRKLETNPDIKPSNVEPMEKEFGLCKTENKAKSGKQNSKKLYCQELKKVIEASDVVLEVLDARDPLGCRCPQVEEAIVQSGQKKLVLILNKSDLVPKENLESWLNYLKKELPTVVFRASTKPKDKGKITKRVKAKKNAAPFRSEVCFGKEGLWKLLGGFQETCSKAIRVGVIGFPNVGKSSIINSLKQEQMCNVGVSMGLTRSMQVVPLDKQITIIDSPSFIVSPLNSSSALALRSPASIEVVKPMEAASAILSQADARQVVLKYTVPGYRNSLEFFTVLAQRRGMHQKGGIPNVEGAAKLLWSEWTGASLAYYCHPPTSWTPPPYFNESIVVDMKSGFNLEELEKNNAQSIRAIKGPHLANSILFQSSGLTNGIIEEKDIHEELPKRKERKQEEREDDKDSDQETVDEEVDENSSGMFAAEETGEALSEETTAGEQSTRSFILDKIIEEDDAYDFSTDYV
UniProt P00505: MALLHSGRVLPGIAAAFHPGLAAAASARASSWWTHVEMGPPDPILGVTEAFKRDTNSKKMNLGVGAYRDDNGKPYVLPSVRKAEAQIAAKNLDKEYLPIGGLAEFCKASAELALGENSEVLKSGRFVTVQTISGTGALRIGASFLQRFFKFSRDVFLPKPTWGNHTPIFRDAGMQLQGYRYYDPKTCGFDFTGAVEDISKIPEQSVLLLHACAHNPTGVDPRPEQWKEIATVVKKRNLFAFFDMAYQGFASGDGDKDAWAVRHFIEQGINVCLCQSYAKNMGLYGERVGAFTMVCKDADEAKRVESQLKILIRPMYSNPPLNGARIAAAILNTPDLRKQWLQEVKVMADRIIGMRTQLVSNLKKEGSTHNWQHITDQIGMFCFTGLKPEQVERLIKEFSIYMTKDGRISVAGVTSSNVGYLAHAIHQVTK
UniProt Q86VQ1: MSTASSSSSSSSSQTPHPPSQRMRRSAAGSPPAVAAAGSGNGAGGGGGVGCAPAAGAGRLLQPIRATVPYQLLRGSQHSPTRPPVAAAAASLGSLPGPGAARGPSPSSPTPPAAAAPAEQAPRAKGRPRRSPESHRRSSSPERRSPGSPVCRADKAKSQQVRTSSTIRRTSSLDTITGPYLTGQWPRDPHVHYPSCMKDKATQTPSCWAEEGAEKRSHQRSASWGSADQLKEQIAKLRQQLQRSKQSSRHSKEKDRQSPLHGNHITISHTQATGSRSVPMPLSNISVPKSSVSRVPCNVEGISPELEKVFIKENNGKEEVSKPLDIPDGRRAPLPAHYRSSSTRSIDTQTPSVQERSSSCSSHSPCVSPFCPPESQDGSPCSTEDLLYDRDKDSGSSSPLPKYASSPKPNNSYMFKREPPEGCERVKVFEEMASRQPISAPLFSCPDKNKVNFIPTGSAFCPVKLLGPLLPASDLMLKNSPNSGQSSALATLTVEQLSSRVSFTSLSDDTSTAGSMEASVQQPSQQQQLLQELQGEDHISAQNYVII
UniProt P06280: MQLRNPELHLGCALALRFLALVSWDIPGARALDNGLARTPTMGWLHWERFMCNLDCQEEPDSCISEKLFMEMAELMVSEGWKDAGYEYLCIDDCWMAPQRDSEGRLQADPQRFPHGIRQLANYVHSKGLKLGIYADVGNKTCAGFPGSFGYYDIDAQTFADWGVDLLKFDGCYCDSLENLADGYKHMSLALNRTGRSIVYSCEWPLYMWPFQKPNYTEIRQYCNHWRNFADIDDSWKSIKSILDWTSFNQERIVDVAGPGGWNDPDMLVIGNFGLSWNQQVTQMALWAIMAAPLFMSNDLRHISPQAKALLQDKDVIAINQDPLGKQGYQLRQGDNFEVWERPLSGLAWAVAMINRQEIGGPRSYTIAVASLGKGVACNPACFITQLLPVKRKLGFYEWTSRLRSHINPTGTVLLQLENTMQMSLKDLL
UniProt Q9HC38: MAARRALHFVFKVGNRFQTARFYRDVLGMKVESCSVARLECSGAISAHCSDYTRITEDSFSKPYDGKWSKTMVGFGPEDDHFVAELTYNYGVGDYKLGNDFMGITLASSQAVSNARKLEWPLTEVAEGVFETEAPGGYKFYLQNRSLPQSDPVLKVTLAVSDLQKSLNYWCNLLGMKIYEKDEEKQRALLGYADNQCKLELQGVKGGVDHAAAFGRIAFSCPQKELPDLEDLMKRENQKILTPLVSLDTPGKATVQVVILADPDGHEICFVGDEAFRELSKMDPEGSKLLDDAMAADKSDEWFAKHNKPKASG

Some of the results follow.
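Also: competitive chemoproteomic profiling in live THP-1 cells with an iodoacetamide desthiobiotin (IA-DTB) probe, comparing probe-labelled peptide intensities in compound-treated cells against DMSO-treated controls.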

As for “GK_P32189_421_DCGIPLSHLQVDGGMTSNK (UniProt P32189)”, the “probe-labelled cysteine peptide fold change” value was determined as 0.189 (10 µM) and 0.119 (50 µM).
For “GLO1_Q04760_139_GFGHIGIAVPDVYSACKR (UniProt Q04760)”, the “probe-labelled cysteine peptide fold change” value is, setting by setting: (10 µM) -0.51; (50 µM) -0.326.
On the same counts, the results for “GNAI2_P04899_140_LWADHGVQACFGR (UniProt P04899)” are 0.0138 and 0.105.
The corresponding values for “GMPS_P49915_137_SVREDGVFNISVDNTCSLFR (UniProt P49915)” are -0.131 and -0.144.
As for “GOLPH3_Q9H4A6_280_QLLDLDPEVECLK (UniProt Q9H4A6)”, the “probe-labelled cysteine peptide fold change” value reads like this: (10 µM) -0.0996; (50 µM) -0.112.
Take “GOLGA4_Q13439_1729_NVAAYTEQEEADSQGCVQK (UniProt Q13439)”: the “probe-labelled cysteine peptide fold change” value is, setting by setting: (10 µM) 0.235; (50 µM) 0.216.
In the case of “GLG1_Q92896_118_LAEEESCREDVTR (UniProt Q92896)”, the “probe-labelled cysteine peptide fold change” value is, setting by setting: (10 µM) -0.0823; (50 µM) -0.0605.
On the same counts, the results for “GK_P32189_289+293_NTYGTGCFLLCNTGHK (UniProt P32189)” are -0.0041 and 0.249.
As to “GOPC_Q9HD26_327_CGGLHVGDAILAVNGVNLR (UniProt Q9HD26)”, the “probe-labelled cysteine peptide fold change” value by setting is: (10 µM) 0.0726; (50 µM) 0.301.
“GPD1L_Q8N335_202_ITVVDDADTVELCGALK (UniProt Q8N335)”: the “probe-labelled cysteine peptide fold change” value is 0.0754 (10 µM) and -0.117 (50 µM).
Turning to GMPS_P49915_4_ALCNGDSK (UniProt P49915), the “probe-labelled cysteine peptide fold change” value reads like this: (10 µM) 0.0174; (50 µM) -0.169.
The corresponding values for “GLYR1_Q49A26_303_CDLFIQEGAR (UniProt Q49A26)” are -0.0208 and -0.0795.
Take “GOLGA3_Q08378_769_LGELQGEAASREDTICLLQNEK (UniProt Q08378)”: the “probe-labelled cysteine peptide fold change” value was -0.111 (10 µM) and -0.211 (50 µM).
On to “GPATCH11_Q8N954_95_NALGCENK (UniProt Q8N954)”, for which the “probe-labelled cysteine peptide fold change” value runs as follows: (10 µM) -0.0699; (50 µM) -0.121.
As for “GMPPA_Q96IJ6_154_TQSLNYGCIVENPQTHEVLHYVEK (UniProt Q96IJ6)”, the “probe-labelled cysteine peptide fold change” value was 0.0875 (10 µM) and -0.131 (50 µM).
In the case of “GLS_O94925_518_GIHFCHDLVSLCNFHNYDNLR (UniProt O94925)”, the “probe-labelled cysteine peptide fold change” value (10 µM) was -0.0754 and the “probe-labelled cysteine peptide fold change” value (50 µM) is -0.0766.
As for “GNL3_Q9BVP2_280_QEQMCNVGVSMGLTR (UniProt Q9BVP2)”, the “probe-labelled cysteine peptide fold change” value is -0.066 (10 µM) and -0.0721 (50 µM).
In the case of “GOT2_P00505_272_HFIEQGINVCLCQSYAK (UniProt P00505)”, the “probe-labelled cysteine peptide fold change” value amounted to 0.221 (10 µM) and 0.191 (50 µM).
For the target “GLG1_Q92896_1071_ADIFVDPVLHTACALDIK (UniProt Q92896)”, the “probe-labelled cysteine peptide fold change” value is -0.0756 (10 µM) and -0.0987 (50 µM).
Turning to “GOPC_Q9HD26_76_MTSLSSCFAQLCHK (UniProt Q9HD26)”, the “probe-labelled cysteine peptide fold change” value by setting is: (10 µM) -0.0907; (50 µM) -0.121.
The corresponding values for “GPATCH1_Q9BRR8_534_CLDPSMTEWER (UniProt Q9BRR8)” are -0.0382 and 0.186.
The corresponding values for “GPD2_P43304_385_NYLSCDVEVR (UniProt P43304)” are 0.0483 and 0.0279.
As to “GOT2_P00505_106_EYLPIGGLAEFCK (UniProt P00505)”, the “probe-labelled cysteine peptide fold change” value is -0.064 (10 µM) and 0.0569 (50 µM).
In the case of “GLCCI1_Q86VQ1_151_SPGSPVCR (UniProt Q86VQ1)”, the “probe-labelled cysteine peptide fold change” value is, setting by setting: (10 µM) 0.0233; (50 µM) 0.0417.
As for “GLA_P06280_378_GVACNPACFITQLLPVKR (UniProt P06280)”, the “probe-labelled cysteine peptide fold change” value was -0.101 (10 µM) and -0.018 (50 µM).
For “GPATCH8_Q9UKJ3_795_HKGELPPSSCQR (UniProt Q9UKJ3)”, the “probe-labelled cysteine peptide fold change” value was -0.186 (10 µM) and -0.0452 (50 µM).
Consider “GPHN_Q9NQX3_154_KGSQECFQFILPALPHAIDLLR (UniProt Q9NQX3)”, for which the “probe-labelled cysteine peptide fold change” value is -0.234 (10 µM) and -0.269 (50 µM).
In the case of “GLRX3_O76003_146_KLTHAAPCMLFMK (UniProt O76003)”, the “probe-labelled cysteine peptide fold change” value reads like this: (10 µM) -0.269; (50 µM) -0.209.
GNAS_P63092_3_GCLGNSK (UniProt P63092): the “probe-labelled cysteine peptide fold change” value was -0.0143 (10 µM) and 0.00877 (50 µM).
With “GK_P32189_67_EILHSVYECIEK (UniProt P32189)”, the “probe-labelled cysteine peptide fold change” value reads like this: (10 µM) 0.13; (50 µM) -0.0195.
As to “GNL3_Q9BVP2_156_KVIEASDVVLEVLDARDPLGCR (UniProt Q9BVP2)”, the “probe-labelled cysteine peptide fold change” value runs as follows: (10 µM) -0.41; (50 µM) -0.169.
With “GOLGB1_Q14789_3144_KSDPEELREPQQSFSEAQQQLCNTR (UniProt Q14789)”, the “probe-labelled cysteine peptide fold change” value (10 µM) was -0.0219 and the “probe-labelled cysteine peptide fold change” value (50 µM) was -0.0547.
Regarding “GMPPA_Q96IJ6_389_LLPAITILGCR (UniProt Q96IJ6)”, the “probe-labelled cysteine peptide fold change” value was determined as 0.15 (10 µM) and 0.0371 (50 µM).
With “GLOD4_Q9HC38_269_ATVQVVILADPDGHEICFVGDEAFR (UniProt Q9HC38)”, the “probe-labelled cysteine peptide fold change” value runs as follows: (10 µM) 0.00217; (50 µM) 0.119.
“GLCCI1_Q86VQ1_207_ATQTPSCWAEEGAEKR (UniProt Q86VQ1)”: the “probe-labelled cysteine peptide fold change” value is -0.146 (10 µM) and -0.352 (50 µM).
On the same counts, the results for “GNAQ_P50148_9_TLESIMACCLSEEAK (UniProt P50148)” are -0.0572 and 0.016.

Source of the values: the supplement of paper PMC12067093, “Discovery and optimisation of a covalent ligand for TRIM25 and its application to targeted protein ubiquitination” (Chemical Science, 2025).
